Data as given in the supplement of paper PMC3334620.
Over roughly 33,000 sequences, “E-score (-0.5 to 0.5)” has its median near -0.015; the highest 2% begin near 0.3. The list shows a part of the results.

Biological target: T1, Abf1 (UniProt P14164)
T1 sequence: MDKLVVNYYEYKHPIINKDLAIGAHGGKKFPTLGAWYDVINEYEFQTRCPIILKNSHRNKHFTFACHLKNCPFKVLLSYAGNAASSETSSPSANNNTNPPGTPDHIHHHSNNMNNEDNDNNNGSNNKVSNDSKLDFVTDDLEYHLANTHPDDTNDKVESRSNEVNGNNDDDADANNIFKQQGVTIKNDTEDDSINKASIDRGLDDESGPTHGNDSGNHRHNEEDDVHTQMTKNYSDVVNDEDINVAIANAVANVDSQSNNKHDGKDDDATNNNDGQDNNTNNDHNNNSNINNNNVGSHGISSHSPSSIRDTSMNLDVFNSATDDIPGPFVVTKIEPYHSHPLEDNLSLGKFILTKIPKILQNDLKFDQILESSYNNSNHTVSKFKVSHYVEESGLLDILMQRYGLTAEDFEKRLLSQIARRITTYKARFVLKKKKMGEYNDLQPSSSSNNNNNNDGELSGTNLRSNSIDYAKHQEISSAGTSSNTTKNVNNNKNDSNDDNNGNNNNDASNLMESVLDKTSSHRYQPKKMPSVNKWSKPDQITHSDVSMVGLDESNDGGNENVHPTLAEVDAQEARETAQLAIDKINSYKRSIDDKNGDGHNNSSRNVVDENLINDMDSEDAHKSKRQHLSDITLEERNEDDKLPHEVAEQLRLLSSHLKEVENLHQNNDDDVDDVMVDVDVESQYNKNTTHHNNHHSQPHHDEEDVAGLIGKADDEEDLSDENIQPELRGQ
Assay: PBM E-score (8-mer binding enrichment) (E-score (-0.5 to 0.5)); higher = stronger / more preferred TF binding
Settings: protein concentration: 200 nM; construct: GST-full length
Summary of the method: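 Full-length yeast transcription factors or their DNA-binding domains, GST-tagged and expressed with PURExpress, were applied at about 100-200 nM to universal all-10-mer Agilent arrays. These arrays had been made double-stranded by primer extension on fresh or once-stripped slides. Detection used fluorescent anti-GST, normalisation used masliner, and E-scores for ungapped eight-base words pooled with reverse complements came from the Universal PBM Analysis Suite.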

Sequence | PBM E-score
CCGAATCC | 0.13
GGTGTGTA | -0.0157
GCTCAAGA | -0.116
CTGTATTC | -0.048
ACGCTAAT | 0.00078
CAGGACGG | -0.0334
ACAGTGCT | 0.122
ATCTCAAT | 0.15
ACGAACTC | 0.257
ATATGTCG | 0.288
AGTCACTG | 0.0546
GGCTGGAC | -0.282
CTCCTTAA | -0.12
ATTTAAAC | 0.0999
AATATACA | 0.0254
GGTGGTGA | 0.14
CGTGTTCA | 0.177
TAACCTTA | -0.0269
CCATCAAC | 0.0413
CAATGAAG | 0.0513
AATAGTAT | 0.079
AACAGAGA | -0.09
ATGGGGCC | -0.384
CTATGTTC | -0.142
ACACTAGC | 0.0858

Sequence | PBM E-score
AACTTATT | 0.0636
AACGGTTA | 0.0157
AGACCACT | -0.0535
AATAAGTC | -0.102
GCCAGCGA | -0.00177
CGGGGGTC | -0.205
AAATACAA | 0.155
CGGACACG | 0.112
AACTGTAG | -0.2
AAGTATCC | 0.0928
CATGAAAA | 0.101
GGGAACCC | -0.0593
CGACGAGA | 0.13
CCGGCTCG | -0.0287
GCCTGTAC | 0.0979
CACTTCGC | -0.0429
CCGACTCG | -0.113
AGATTTGG | -0.145
TACATCAA | 0.018
CACAACCA | 0.0715
AATTCTGC | 0.059
GAGTGGGC | -0.242
AAGCGGCG | -0.0976
AACACTGA | -0.142
CTATTGCC | -0.215

An excerpt of these results, tab-delimited.
Sequence	PBM E-score
ATTTAAAC	0.0999
AATATACA	0.0254

(next part)

Sequence | PBM E-score
GCAGAGCC | -0.203
CGGCGTGC | -0.154
GGGCTAAC | -0.117
AACTCATC | 0.0775
CACGCTAG | 0.00309
CCGAAACC | -0.172
ACTCCATG | -0.16
AGAATCAA | 0.0578
CCGTTCAA | 0.26
AACGGAAG | -0.0304
GTAATCCA | 0.0963
CATCTGCA | -0.02
GGATCCCC | -0.241
CTTGGCCC | -0.372
GTGCTACA | 0.0409
AGCTTGTG | -0.162
GTTGCCCA | -0.00325
CCTCTGGC | -0.119
AGGGAGAC | -0.188
ACGTGGAA | 0.118
TTCGAAAA | 0.289
AGGATGAG | -0.0187
ATTTAGCA | 0.193
TAGCAGAA | 0.113
ACCAAGAA | -0.00575

Sequence | PBM E-score
CGCGAATC | 0.0291
AAGTAGTA | 0.212
ATACTCCC | -0.0156
CGTCAGTA | 0.104
AAAACGAG | 0.0711
AGGTTTAA | -0.0621
CCGGCGAG | -0.139
GAGGGAGC | -0.274
TGATATAA | 0.281
ACTGCTTG | -0.205
ACTACAGA | 0.0352
ATCCCCTG | -0.108
AAGCCATC | 0.14
ATGCTGAA | -0.0362
GTCATCAC | 0.334
AATATTAG | 0.214
GCCTCTCC | -0.266
GAACACAA | -0.0576
ATCGCGCA | 0.181
CACGTCCA | -0.0875
AGACCTGA | -0.121
TCCTTAGA | -0.0788
CAGCCGAC | -0.17
ATTAGTTA | 0.237
TAGGGAGA | -0.0106

Sequence | PBM E-score
AGGCGTGC | 0.0321
AGACTATC | -0.0875
ATTCAGTG | -0.0205
ACAGTAGG | -0.0881
AGCGCACG | -0.14
CGTGAACC | -0.019
GGTATCGA | 0.0737
CTAATGCC | -0.208
ACCTCACG | 0.0545
AGAGGATG | -0.0558
AACACAGG | -0.154
GTAACAAA | 0.141
CACTGACC | -0.257
CTCTCAAC | -0.0871
GCCTCTTA | -0.0192
CTTCGGTA | -0.145
AGTTCGAA | 0.00999
AGACAAAT | 0.0624
CTTCGCTA | 0.00431
TCAGAGAA | -0.0789
AGGCTAAG | -0.162
CGATTACC | 0.103
CATATAAG | 0.0553
ACCGTATC | 0.225
AATACCGC | -0.0766

Sequence | PBM E-score
CCACTAGG | -0.26
CTTCATAA | -0.0242
GGTCGCAC | -0.145
CGACAACA | 0.115
ATTTTCCA | 0.236
CATTGACC | 0.0479
GGGTCCTA | -0.172
ACTTCCAT | 0.0613
GCTGTGCC | -0.18
CCAATAAG | -0.0114
GAGCTACC | -0.0673
GTATCCGA | -0.0701
CCACGGAA | 0.273
GAAGTCGC | -0.0321
ACGCCTTA | 0.0359
GAGAAGCC | -0.0881
TGCCCGAA | 0.0588
GTACACAC | 0.0307
GAGTGGCA | 0.0148
AGTCTCAA | -0.0389
ACTACCTG | -0.151
ACAAGGCA | -0.0394
CAGCCACG | 0.07
AAACTCTT | -0.164
GACAAGGA | 0.0819

A different layout for part of the listing above.
Sequence	PBM E-score
GGTATCGA	0.0737
CTAATGCC	-0.208
ACCTCACG	0.0545
AGAGGATG	-0.0558
GTAACAAA	0.141
CTCTCAAC	-0.0871
GCCTCTTA	-0.0192
CTTCGGTA	-0.145
AGTTCGAA	0.00999
AGACAAAT	0.0624
CTTCGCTA	0.00431
TCAGAGAA	-0.0789
AGGCTAAG	-0.162
CGATTACC	0.103
CATATAAG	0.0553
ACCGTATC	0.225
AATACCGC	-0.0766
CCACTAGG	-0.26
CTTCATAA	-0.0242
GGTCGCAC	-0.145
CGACAACA	0.115
ATTTTCCA	0.236
CATTGACC	0.0479
GGGTCCTA	-0.172
ACTTCCAT	0.0613
GCTGTGCC	-0.18
CCAATAAG	-0.0114
GAGCTACC	-0.0673
CCACGGAA	0.273
GAAGTCGC	-0.0321
ACGCCTTA	0.0359
GAGAAGCC	-0.0881
TGCCCGAA	0.0588
GTACACAC	0.0307
GAGTGGCA	0.0148
AGTCTCAA	-0.0389
ACTACCTG	-0.151
ACAAGGCA	-0.0394
CAGCCACG	0.07
AAACTCTT	-0.164
GACAAGGA	0.0819

(listing goes on)

Sequence | PBM E-score
CTAGTGCC | -0.114
CCTTGGAA | -0.0298
GTGGCGGA | -0.105
AGGATACA | 0.147
CCTGAGCA | -0.0528
ACTACCAC | -0.109
AATCCGTC | 0.0665
CGAAGAAG | 0.123
GAACGGGA | -0.0962
ACCCAAGC | -0.215
AGGGATTA | 0.038
AGAAATCC | -0.0538
GGCGTAAA | -0.0418
ACCGTCGA | 0.18
ATTGAGAA | 0.19
AGTGGTAA | 0.0352
CGTCCATC | 0.0706
CGAAGATC | 0.107
ACCTGTCG | -0.065
CGTCGAAG | 0.188
CTTGATGA | 0.197
CTAAATAC | 0.19
